# In PubChem BioAssay AID504444 (National Center for Advancing Translational Sciences (NCATS), 2011):
# Screen size: about 360,000 compounds; about 7,500 (2.1%) were called active. Inconclusive means that the source gave no clear call. Such entries were picked first, then a sample of the others. The call rests on the fitted dose curve; in most records, active means well fitted inhibition curve with a large enough effect; inconclusive means small, poorly fitted or top-dose-only effect, or effect the other way; inactive means flat fitted curve, though single readings scatter. Potencies beside an inconclusive call are fits to weak or partial responses and may not hold up.
# Test: Nrf2 qHTS screen for inhibitors; further: nearly all actives have a fitted effect of over 60% in size
# Details: A549 ARE-Fluc reporter, luciferase luminescence, 18-24 h; series mostly up to 46 µM
# How it was run: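 Nrf2 function is reported as luminescence of an ARE-controlled luciferase in A549 cells. Compounds were tested at several concentrations, and a CellTiter-Fluor read on the same wells flagged cytotoxicity.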
# Potency means the concentration at half of the fitted maximal effect.
row,SMILES,Potency
1,CCOC(=O)c1c(C)[nH]c(C(=O)OCC(=O)c2ccc3c(c2)NC(=O)CO3)c1C,inactive
2,COc1ccccc1Nc1nc(Cl)c(C=O)s1,"inconclusive: 25.9 µM [activator, single point]"
3,Clc1ncccc1-c1nc2ccccc2s1,"inconclusive: 18.4 µM [activator, partial curve]"
4,O=C(Nc1ccccc1C(F)(F)F)C1CCN(S(=O)(=O)c2ccccc2)CC1,inactive
5,O=C(CN1CCN(S(=O)(=O)c2ccc3c(c2)OCCO3)CC1)Nc1cccc(F)c1,"inconclusive: 29.1 µM [falling, single point]"
6,CC(O)[C@H]1CNCCN1CCc1cc(C(F)(F)F)cc(C(F)(F)F)c1 (some centres not stated),"inconclusive: 16.4 µM [falling, single point]"
7,CC(=O)N1C(=O)/C(=C2\SC(=S)N(NS(=O)(=O)c3ccc(C)cc3)C2=O)c2ccccc21,inactive
8,CCN(c1ccccc1)S(=O)(=O)c1ccc(OC)c(NC(=O)c2cccs2)c1,"inconclusive: 29.1 µM [activator, single point]"
9,CCCn1c(=O)n(C)c(=O)c2c(SCC(=O)Nc3cc(C)on3)nc(C(C)(C)C)nc21,"inconclusive: 16.4 µM [falling, single point]"
10,Cc1nn2c(NC(C)C)c3c(nc2c1-c1ccccc1)CCC3,"inconclusive: 25.9 µM [falling, single point]"
11,COc1ccc(S(=O)(=O)N2CCc3ccccc32)cc1C(=O)Nc1ccc(C(N)=O)cc1,"inconclusive: 29.1 µM [falling, single point]"
12,COc1ccccc1-c1nnc(Sc2nc([N+](=O)[O-])nn2C)o1,"inconclusive: 8.2 µM [falling, partial curve, poor fit]"
13,CC(=O)c1ccc(-c2cccc([C@H]3[C@@H]4C=CC[C@@H](C)[C@@H]4C(=O)N3Cc3ccccc3)c2)cc1,"inconclusive: 20.6 µM [falling, single point]"
14,COc1cnc(N(C)C)nc1Sc1ccc(Cl)cc1,inactive
15,CCOC(=O)C[N+]1(C)CCN(C(C)=O)CC1,"inconclusive: 29.1 µM [activator, partial curve, poor fit]"
16,Cc1ccc(CCNC(=O)CNC(=S)N(Cc2ccccc2)Cc2cccnc2)cc1,"inconclusive: 18.4 µM [falling, single point]"
17,COc1ccccc1-c1cc(C(F)(F)F)nc(S(=O)(=O)CCCC(=O)NCc2ccc(F)cc2)n1,"inconclusive: 23.1 µM [falling, single point]"
18,Cc1cccc(N2CCN(Cc3nc(-c4cccc(Oc5ccccc5)c4)oc3C)CC2)n1,"inconclusive: 29.1 µM [falling, single point]"
19,O=C(Nc1ccc2ccccc2n1)c1ccccc1Br,"inconclusive: 7.31 µM [activator, partial curve]"
20,O=C(Nc1ccc(Cl)cc1)ON=C1CCCC1,"inconclusive: 0.731 µM [activator, full curve, poor fit]"
21,Cc1ccc(C(=O)OCC(=O)c2c[nH]c3ccccc23)cc1,"inconclusive: 18.4 µM [activator, single point]"
22,CC(Oc1ccccc1)C(=O)Nc1ccc(S(=O)(=O)Nc2nccs2)cc1 (configuration not stated),inactive
23,NC(=O)CC(NC(=O)c1ccccc1)c1ccc(NC2CCCCC2)c([N+](=O)[O-])c1 (configuration not stated),"inconclusive: 29.1 µM [falling, single point]"

row,SMILES,Potency
1,O=C(NCc1cn(-c2ccccc2)nc1-c1ccc(F)cc1)c1cccc([N+](=O)[O-])c1,"inconclusive: 10.3 µM [falling, partial curve, poor fit]"
2,COc1ccc(-c2cc3nc(C)c(CCC(=O)NCc4ccc(F)cc4)c(C)n3n2)c(OC)c1,inactive
3,CCOC(=O)c1ccc(N2CCN(c3ccccc3F)CC2)c(NC(=O)Nc2cccc(OC)c2)c1,inactive
4,Oc1[nH]c2ccccc2c1N=Nc1ccccc1F,"inconclusive: 16.4 µM [activator, partial curve]"
5,CCOc1ccc(N2C(=O)CC(N(Cc3ccco3)C(=O)CCC(=O)O)C2=O)cc1 (configuration not stated),"inconclusive: 6.51 µM [activator, single point]"
6,c1ccc2nc(-c3nccs3)ccc2c1,"inconclusive: 20.6 µM [activator, single point]"
7,S=C(Nc1ccc(Oc2ccccc2)cc1)NC1CCCCCC1,"inconclusive: 29.1 µM [falling, single point]"
8,N#Cc1cc2c(nc1SCc1ccc(Cl)cc1)CCCC2,"inconclusive: 1.64 µM [falling, full curve, poor fit]"
9,O=C(Nc1ccc(S(=O)(=O)N2CCCCC2)cc1)C1CC(=O)N(c2ccc(Cl)cc2)C1 (configuration not stated),active: 23.1 µM
10,COc1ccccc1OCC(=O)Nc1cc(S(=O)(=O)N2CCCCC2)ccc1N1CCCCC1,"inconclusive: 25.9 µM [falling, single point]"
11,O=C(Cn1cc(SCc2ccc(Cl)cc2)c2ccccc21)N1CCOCC1,inactive
12,O=C(Nc1ccccc1C(=O)NC(Cc1ccccc1)C(=O)O)c1ccco1 (configuration not stated),inactive
13,COCCN(CCOC)S(=O)(=O)c1ccc(C(=O)NC2CCN(Cc3ccccc3)CC2)cc1,"inconclusive: 16.4 µM [falling, partial curve, poor fit]"
14,COC(=O)c1c(-c2ccccc2)c[nH]c1C,"inconclusive: 23.1 µM [activator, single point]"
15,COC(=O)c1ccc(Cn2cnc3c(cnn3-c3ccc(C)c(C)c3)c2=O)o1,active: 23.1 µM
16,Cc1c(NC(=O)c2cccc(NC(=O)COc3cccc(Br)c3)c2)c(=O)n(-c2ccccc2)n1C,"inconclusive: 20.6 µM [falling, partial curve]"
17,O=C(CSc1ccc(-c2ccc(F)cc2)nn1)N1CCCc2ccccc21,"inconclusive: 16.4 µM [falling, single point]"
18,O=C(/C=C/c1cccc([N+](=O)[O-])c1)c1ccc([N+](=O)[O-])o1,"inconclusive: 29.1 µM [falling, single point]"
19,O=C(NCCN1CCN(C(=O)NC2CCCCC2)CC1)NC1CCCCC1,inactive
20,COC1=CC(=O)C[C@@H](C)[C@]12Oc1c(Cl)c(OC)cc(OC)c1C2=O,"inconclusive: 23.1 µM [falling, partial curve]"
21,S=C(NCCCc1ccccc1)Nc1ccc(Cl)cc1,"inconclusive: 29.1 µM [falling, single point]"
22,CC1(C)C2CCC(C2)C1(C)NC(=O)CNCC1CCCCC1 (configuration not stated),"inconclusive: 29.1 µM [activator, single point]"
23,COc1ccc(CNC(=O)CCNS(=O)(=O)c2ccc(C)cc2)cc1,"inconclusive: 0.116 µM [falling, full curve, poor fit]"

# In a second layout: results already given.
row	SMILES	Potency
2	COc1ccc(-c2cc3nc(C)c(CCC(=O)NCc4ccc(F)cc4)c(C)n3n2)c(OC)c1	inactive
3	CCOC(=O)c1ccc(N2CCN(c3ccccc3F)CC2)c(NC(=O)Nc2cccc(OC)c2)c1	inactive
4	Oc1[nH]c2ccccc2c1N=Nc1ccccc1F	inconclusive: 16.4 µM [activator, partial curve]
5	CCOc1ccc(N2C(=O)CC(N(Cc3ccco3)C(=O)CCC(=O)O)C2=O)cc1 (configuration not stated)	inconclusive: 6.51 µM [activator, single point]

# Remaining list, next part

row,SMILES,Potency
1,Cc1ccc(NC(=O)/C(C#N)=C(\N)C(Cl)(Cl)Cl)nc1,"inconclusive: 1.46 µM [activator, full curve]"
2,COCc1cc(=O)n2[nH]c(C)cc2n1,"inconclusive: 4.61 µM [activator, partial curve, poor fit]"
3,Cc1ccc(S(=O)(=O)/N=C2/C=C(Sc3ncn[nH]3)C(=O)c3ccccc32)cc1,"inconclusive: 16.4 µM [falling, single point]"
4,CCCCOn1c(C)c(C(=O)OCC)c2c3no[n+]([O-])c3ccc21,"inconclusive: 11.6 µM [falling, partial curve, poor fit]"
5,O=C(CC(=O)Nc1cccc(F)c1)Nc1cccc(F)c1,"inconclusive: 1.16 µM [activator, full curve, poor fit]"
6,CC1CCCCN1C(=S)Nc1ccc2nc3n(c(=O)c2c1)CCCCC3 (configuration not stated),inactive
7,Cc1ccccc1NC(=O)CSc1nc(-c2cccs2)nc2cc(=O)[nH]n12,inactive
8,CN(C)CCNc1ncnc2sc(-c3ccccc3)cc12,inactive
9,COc1ccccc1C(=O)Nc1nc2ccc(S(C)(=O)=O)cc2s1,"inconclusive: 29.1 µM [falling, single point]"
10,CN(C)c1cccc(C(=O)N/N=C/c2ccsc2)c1,"inconclusive: 5.17 µM [activator, full curve]"
11,CSc1nc2nc3c(cn2n1)C(=O)CC(c1ccccc1)C3 (configuration not stated),inactive
12,CC(C)(C)NC(=O)C1Cc2ccccc2CN1S(=O)(=O)c1ccc(F)cc1 (configuration not stated),inactive
13,Cc1c2cnn(-c3ccccc3)c(=O)c2c(C)n1CCCC(=O)Nc1cccc(F)c1,"inconclusive: 20.6 µM [activator, partial curve, poor fit]"
14,Cc1cc(NC(=O)COc2ccc(C)c(C)c2)no1,"inconclusive: 16.4 µM [activator, partial curve, poor fit]"
15,O=C(CN1CCCCCC1)Nc1ccc(Br)cc1Br,"inconclusive: 8.2 µM [activator, partial curve, poor fit]"
16,Cc1ccc(-n2nnnc2SCC(=O)NC2CCCc3ccccc32)cc1 (configuration not stated),"inconclusive: 1.84 µM [activator, full curve, poor fit]"
17,CCOc1ccc2oc(C(=O)OCC(=O)N3CCCC(C)C3)c(C)c2c1 (configuration not stated),"inconclusive: 29.1 µM [falling, single point]"
18,CN(Cc1ccccc1)c1ncnc2ccc(Br)cc12,"inconclusive: 11.6 µM [falling, partial curve, poor fit]"
19,Cc1nn(Cc2ccc(F)cc2)c(C)c1NC(=O)c1noc2c1CCc1ccccc1-2,active: 20.6 µM
20,Nc1ccc2nc(-c3ccc(N)c(Cl)c3)[nH]c2c1,"inconclusive: 6.51 µM [activator, single point]"
21,COc1ccccc1NC(=O)c1cc(Sc2nncn2C)nc2ccccc12,"inconclusive: 6.51 µM [falling, single point]"
